Data reported in patent publication US20070129367A1, “Pyridine derivatives as cb2 receptor modulators” (priority 2002, published 2007).
Some of these results come from one statement about several compounds together.

Amino acid sequences for entries named in this document (tags omitted).
UniProt P34972, whole entry: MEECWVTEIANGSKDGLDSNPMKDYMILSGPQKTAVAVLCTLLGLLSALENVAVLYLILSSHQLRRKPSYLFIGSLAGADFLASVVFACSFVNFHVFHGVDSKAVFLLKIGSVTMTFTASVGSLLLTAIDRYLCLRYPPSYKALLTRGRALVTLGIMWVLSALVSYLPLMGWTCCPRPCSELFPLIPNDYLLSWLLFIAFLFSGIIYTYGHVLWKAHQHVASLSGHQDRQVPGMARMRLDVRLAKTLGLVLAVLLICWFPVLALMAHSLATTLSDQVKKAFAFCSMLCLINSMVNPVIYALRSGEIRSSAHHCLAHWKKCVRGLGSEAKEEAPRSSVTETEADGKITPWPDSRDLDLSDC

Biological target: T1, human cannabinoid CB2 receptor (Homo sapiens, UniProt P34972)
T1 construct: expressed in transfected cells; host or cells: Saccharomyces cerevisiae strain MMY23 (cassette integrated at the ura3 locus, GPD promoter)
Test: Cannabinoid CB2 receptor agonist activity in yeast (Saccharomyces cerevisiae) cells expressing the receptor, FDGlu fluorescence readout
Type: cell-based
Conditions: Emax relative to HU210
Experimental: Determination of Cannabinoid CB2 Receptor Agonist Activity
The cannabinoid CB2 receptor agonist activity of the compounds of formula (I) was determined in accordance with the following experimental method.
Yeast (Saccharomyces cerevisiae) cells expressing the human cannabinoid CB2 receptor were generated by integration of an expression cassette into the ura3 chromosomal locus of yeast strain MMY23. This cassette consisted of DNA sequence encoding the human CB2 receptor flanked by the yeast GPD promoter to the 5′ end of CB2 and a yeast transcriptional terminator sequence to the 3′ end of CB2. MMY23 expresses a yeast/mammalian chimeric G-protein alpha subunit in which the C-terminal 5 amino acids of Gpa1 are replaced with the C-terminal 5 amino acids of human Gαi3 (as described in Brown et aL (2000), Yeast 16:11-22). Cells were grown at 30° C. in liquid Synthetic Complete (SC) yeast media (Guthrie and Fink (1991), Methods in Enzymology, Vol. 194) lacking uracil, tryptophan, adenine and leucine to late logarithmic phase (approximately 6 OD600/ml).
Agonists were prepared as 10 mM stocks in DMSO. […] Agonist solutions in DMSO (1% final assay volume) were transferred into black, clear bottom, microtitre plates from NUNC (96- or 384-well). […] This mixture (50 ul per well for 384-well plates, 200 ul per well for 96-well plates) was added to agonist in the assay plates (Multidrop 384, Labsystems). After incubation at 30° C. for 24 hours, fluorescence resulting from degradation of FDGlu to fluorescein due to exoglucanase, an endogenous yeast enzyme produced during agonist-stimulated cell growth, was determined using a Spectrofluor microtitre plate reader (Tecan; excitation wavelength: 485 nm; emission wavelength: 535 nm). Fluorescence was plotted against compound concentration and iteratively curve fitted using a four parameter fit to generate a concentration effect value. […] Equieffective molar ratio (EMR) values were calculated from the equation EMR=EC50 [compound X]/EC50 [HU210]
Where EC50 [compound X] is the EC50 of compound X and EC50 [HU210] is the EC50 of HU210.

Efficacy (Emax) at the cloned human cannabinoid CB2 receptor, > 50%:
CC(C)c1cc(Nc2cccc(Cl)c2)ncc1C(=O)NCc1ccc(C(N)=O)cc1 [Example 8, N-(4-Carbamoyl-benzyl)-6-(3-chloro-phenylamino)-4-isopropyl-nicotinamide]
CC(C)c1cc(Nc2ccc(C#N)cc2)ncc1C(=O)NCc1ccc(F)cc1 [Example 18, 6-(4-Cyano-phenylamino)-N-(4-fluoro-benzyl)-4-isopropyl-nicotinamide]
CC(C)c1cc(Nc2ccc(Br)c(F)c2)ncc1C(=O)NCc1ccc(F)cc1 [Example 24, 6-(4-Bromo-3-fluoro-fluoro-benzyl)-4-phenylamino)-N-(4-isopropyl-nicotinamide]
CC(C)c1cc(Nc2cccc(C#N)c2)ncc1C(=O)NCc1ccc(F)cc1 [Example 19, 6-(3-Cyano-phenylamino)-N-(4-fluoro-benzyl)-4-isopropyl-nicotinamide]
CC(C)c1cc(Nc2ccc(C(F)(F)F)c(F)c2)ncc1C(=O)NCc1ccc(F)cc1 [Example 76, N-(4-fluoro-benzyl)-6-(3-Fluoro-4-trifluormethyl-phenylamino)-4-isopropyl-nicotinamide]
CC(C)c1cc(Nc2ccc(Br)cc2F)ncc1C(=O)NCc1ccc(F)cc1 [Example 31, 6-(4-Bromo-2-fluoro-phenylamino)-N-(4-fluoro-benzyl)-4-isopropyl-nicotinamide]
CC(C)c1cc(Nc2cc(Cl)ccc2F)ncc1C(=O)NCc1ccc(F)cc1 [Example 72, 6-(5-Chloro-2-fluoro-phenylamino)-N-(4-fluoro-benzyl)-4-isopropyl-nicotinamide]
Cc1cc(C#N)ccc1Nc1cc(C(C)C)c(C(=O)NCc2ccc(F)cc2)cn1 [Example 73, 6-(4-Cyano-2-methyl-phenylamino)-N-(4-fluoro-benzyl)-4-isopropyl-nicotinamide]
CC(C)c1cc(Nc2ccc(F)c(Cl)c2)ncc1C(=O)NCc1ccc(F)cc1 [Example 15, 6-(3-Chloro-4-fluoro-phenylamino)-N-(4-fluoro-benzyl)-4-isopropyl-nicotinamide]
